The text below walks through data of PMC10937713.

By UniProt entry, the sequences of proteins in these tests, tags left out. Where a name states a change or a piece, a line headed by the entry shows the natural chain unless it says otherwise.
UniProt P35637: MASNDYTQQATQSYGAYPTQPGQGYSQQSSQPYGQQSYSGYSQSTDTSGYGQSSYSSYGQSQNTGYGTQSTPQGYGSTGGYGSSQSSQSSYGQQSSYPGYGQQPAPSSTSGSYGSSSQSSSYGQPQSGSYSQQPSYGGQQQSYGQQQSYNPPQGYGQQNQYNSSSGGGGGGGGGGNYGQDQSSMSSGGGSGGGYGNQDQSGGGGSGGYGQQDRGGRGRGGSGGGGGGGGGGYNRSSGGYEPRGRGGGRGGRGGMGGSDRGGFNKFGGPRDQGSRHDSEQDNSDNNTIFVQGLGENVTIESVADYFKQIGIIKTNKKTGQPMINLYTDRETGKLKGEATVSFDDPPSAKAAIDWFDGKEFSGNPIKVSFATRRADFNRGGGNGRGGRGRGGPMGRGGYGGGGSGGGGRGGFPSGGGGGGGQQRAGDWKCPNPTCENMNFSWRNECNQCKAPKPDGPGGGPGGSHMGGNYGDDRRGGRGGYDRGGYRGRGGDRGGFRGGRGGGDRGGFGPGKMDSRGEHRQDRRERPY
UniProt O14744: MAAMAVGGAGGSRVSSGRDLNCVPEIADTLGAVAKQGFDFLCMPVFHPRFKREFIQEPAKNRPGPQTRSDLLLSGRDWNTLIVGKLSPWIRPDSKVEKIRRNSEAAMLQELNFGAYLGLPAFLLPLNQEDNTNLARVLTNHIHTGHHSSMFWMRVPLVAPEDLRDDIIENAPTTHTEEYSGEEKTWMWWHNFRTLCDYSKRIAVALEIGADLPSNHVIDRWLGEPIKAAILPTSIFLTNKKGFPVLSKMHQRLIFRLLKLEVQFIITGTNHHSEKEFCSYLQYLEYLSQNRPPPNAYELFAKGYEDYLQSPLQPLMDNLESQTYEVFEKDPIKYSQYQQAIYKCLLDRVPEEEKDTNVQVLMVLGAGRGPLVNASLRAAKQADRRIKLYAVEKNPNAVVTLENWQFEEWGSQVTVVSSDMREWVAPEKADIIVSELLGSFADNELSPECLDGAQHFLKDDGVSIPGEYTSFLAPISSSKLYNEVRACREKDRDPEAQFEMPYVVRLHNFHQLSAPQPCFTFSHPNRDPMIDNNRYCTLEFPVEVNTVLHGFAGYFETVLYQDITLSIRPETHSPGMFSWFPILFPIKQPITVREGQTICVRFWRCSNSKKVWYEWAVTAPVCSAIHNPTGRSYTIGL
UniProt Q9BQA1: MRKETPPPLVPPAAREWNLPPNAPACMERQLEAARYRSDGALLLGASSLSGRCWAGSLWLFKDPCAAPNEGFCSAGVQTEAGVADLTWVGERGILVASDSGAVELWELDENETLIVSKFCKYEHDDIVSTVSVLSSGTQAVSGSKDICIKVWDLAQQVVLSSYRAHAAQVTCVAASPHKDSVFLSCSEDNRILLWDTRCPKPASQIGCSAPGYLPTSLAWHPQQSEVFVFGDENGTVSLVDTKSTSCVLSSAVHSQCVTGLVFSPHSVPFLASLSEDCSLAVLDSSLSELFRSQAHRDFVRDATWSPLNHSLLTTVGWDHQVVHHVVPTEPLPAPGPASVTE

Results are given in words; binding and its absence hold for the method and conditions named. Binding seen in cells or lysates may run through a third protein. Some binding calls cover weakened binding; strength is not graded here.

In experiment [1] the target is fused in sarcoma (FUS) (human (endogenous in MCF-7 and T47D)) (UniProt P35637). Description: co-IP; endogenous proteins; MCF-7_RBKO (and T47D_RBKO) lysates in NP-40 lysis buffer (20 mM Tris-HCl pH 7.6, 150 mM NaCl, 0.1% NP-40, 1 mM EDTA); PRMT5 or FUS antibody or control IgG overnight at 4 °C, protein-G Dyna beads, elution with 0.2 M glycine pH 2.0, immunoblot; in Fig. 4H, I cells were treated with DMSO or 200 nM pemrametostat for three days before the FUS co-IP.

The target in experiment [2] is protein arginine methyltransferase 5 (PRMT5) (human (endogenous in MCF-7 and T47D)) (UniProt O14744). Described as above.

As to “MEP50 (also known as WDR77) (from UniProt Q9BQA1 1-342)”, in experiment [1], the binding result is on record as “binds”.
The same measure, in the same setting: with “protein arginine methyltransferase 5 (PRMT5) (from UniProt O14744 1-637) (enzyme)” the entry was “binds”.
Consider “fused in sarcoma (FUS) (from UniProt P35637 1-526)”, for which the binding result in experiment [2] is “binds”.
